Measured values published in PubChem BioAssay AID504444 (National Center for Advancing Translational Sciences (NCATS), 2011).
In all, about 360,000 compounds went through this assay and about 7,500 (2.1%) were called active. The shares of active, inactive and inconclusive entries below differ from those in the screen. Calls follow the shape of the dose curve; as a rule, active = well fitted inhibition curve with a large enough effect; inconclusive = small, poorly fitted or top-dose-only effect, or effect the other way; inactive = flat fitted curve, though single readings scatter. Where the call is inconclusive, the potency comes from a doubtful curve fit.

Assay: Nrf2 qHTS screen for inhibitors; also: nearly all actives have a fitted effect of over 60% in size
Settings: A549 ARE-Fluc reporter, luciferase luminescence, 18-24 h; series mostly up to 46 µM
Outline: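 Quantitative HTS in A549 cells stably bearing an antioxidant response element-firefly luciferase construct. Inhibition of Nrf2-driven transcription was scored by luminescence after 18-24 h of compound exposure at 37 °C.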
Potency is read from the fitted curve at half-maximal effect.

SMILES	Potency
CC(C)n1c(=S)[nH]c2cc(C(F)(F)F)ccc21	inconclusive: 29.1 µM [falling, single point]
COc1ccc(CN2C(=O)c3cccc4cccc2c34)cc1F	inconclusive: 29.1 µM [activator, single point]
Cn1c(CO)cnc1S(=O)(=O)Cc1c(Cl)cccc1Cl	inconclusive: 13 µM [falling, partial curve, poor fit]
CNC(=O)c1cc(C(=O)c2ccc(Cl)cc2)c(Br)[nH]1	inconclusive: 25.9 µM [falling, partial curve, poor fit]
CC(=O)c1cccc(Nc2nc(-c3ccccc3)cs2)c1	inconclusive: 4.11 µM [activator, partial curve]
CCN1CCC(N(Cc2ccc(F)cc2)C(=O)Nc2cccc(C(F)(F)F)c2)CC1	inactive
O=C(CC1SCCNC1=O)Nc1ccc(Cl)cc1 (stereo not drawn)	inconclusive: 6.51 µM [activator, full curve]
COc1ccc(C(=O)NNC(=S)NC(=O)c2ccc(F)cc2)cc1Br	inconclusive: 29.1 µM [falling, single point]
OC(COc1ccc(F)cc1)CN1CCN(CC(O)COc2ccc(F)cc2)CC1 (stereo not drawn)	inconclusive: 25.9 µM [activator, single point]
CCc1ccccc1Nc1nn2c(=O)c3ccc(C(=O)Nc4ccc(OC)cc4)cc3nc2s1	inconclusive: 18.4 µM [falling, partial curve, poor fit]
Cc1cccn2c(=O)c(C=Nc3ccc(Cl)cc3)c(NCCO)nc12	inactive
O=[N+]([O-])c1ccc(Sc2ncccn2)c([N+](=O)[O-])c1	active: 23.1 µM
CN1N=C(C(=O)N2CCc3c([nH]c4ccccc34)C2c2c(F)cccc2Cl)CCC1=O (stereo not drawn)	inconclusive: 18.4 µM [activator, single point]
CCOC(=O)COn1c(=O)c(-c2ccc(Br)cc2)[n+]([O-])c2ccccc21	inconclusive: 9.2 µM [activator, partial curve, poor fit]
Cc1ccccc1OCCCC(=O)Nc1ccc(N2CCOCC2)cc1	inconclusive: 14.6 µM [falling, partial curve, poor fit]
COc1ccccc1C(=O)Nc1cc(-c2ccc(C)cc2)no1	inconclusive: 5.17 µM [activator, partial curve]
CCO[C@@H]1OC(C(=O)N2CCOCC2)=C[C@H](c2coc3ccccc3c2=O)[C@H]1CCCO	inconclusive: 6.51 µM [falling, single point]
CC(=O)c1ccc2noc(-c3ccc(C)cc3)c2c1	inactive

Three entries already listed, ordered by SMILES length, rising:
SMILES	Potency
CC(=O)c1ccc2noc(-c3ccc(C)cc3)c2c1	inactive
CC(C)n1c(=S)[nH]c2cc(C(F)(F)F)ccc21	inconclusive: 29.1 µM [falling, single point]
CCc1ccccc1Nc1nn2c(=O)c3ccc(C(=O)Nc4ccc(OC)cc4)cc3nc2s1	inconclusive: 18.4 µM [falling, partial curve, poor fit]
